Measurements taken from article PMC10550997.
No constants are given. Whether binding was seen depends on the method and setting. In cells and extracts the contact can be indirect. Some binding calls cover weakened binding; strength is not graded here.

Sequences of proteins named here, by UniProt entry; tags and fusion partners are left off.
UniProt P09542: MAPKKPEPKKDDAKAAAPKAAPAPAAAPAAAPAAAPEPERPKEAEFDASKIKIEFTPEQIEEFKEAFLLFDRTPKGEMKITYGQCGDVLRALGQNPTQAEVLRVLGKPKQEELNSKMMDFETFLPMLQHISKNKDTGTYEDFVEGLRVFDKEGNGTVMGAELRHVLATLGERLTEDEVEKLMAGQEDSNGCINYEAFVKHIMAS
UniProt Q64331: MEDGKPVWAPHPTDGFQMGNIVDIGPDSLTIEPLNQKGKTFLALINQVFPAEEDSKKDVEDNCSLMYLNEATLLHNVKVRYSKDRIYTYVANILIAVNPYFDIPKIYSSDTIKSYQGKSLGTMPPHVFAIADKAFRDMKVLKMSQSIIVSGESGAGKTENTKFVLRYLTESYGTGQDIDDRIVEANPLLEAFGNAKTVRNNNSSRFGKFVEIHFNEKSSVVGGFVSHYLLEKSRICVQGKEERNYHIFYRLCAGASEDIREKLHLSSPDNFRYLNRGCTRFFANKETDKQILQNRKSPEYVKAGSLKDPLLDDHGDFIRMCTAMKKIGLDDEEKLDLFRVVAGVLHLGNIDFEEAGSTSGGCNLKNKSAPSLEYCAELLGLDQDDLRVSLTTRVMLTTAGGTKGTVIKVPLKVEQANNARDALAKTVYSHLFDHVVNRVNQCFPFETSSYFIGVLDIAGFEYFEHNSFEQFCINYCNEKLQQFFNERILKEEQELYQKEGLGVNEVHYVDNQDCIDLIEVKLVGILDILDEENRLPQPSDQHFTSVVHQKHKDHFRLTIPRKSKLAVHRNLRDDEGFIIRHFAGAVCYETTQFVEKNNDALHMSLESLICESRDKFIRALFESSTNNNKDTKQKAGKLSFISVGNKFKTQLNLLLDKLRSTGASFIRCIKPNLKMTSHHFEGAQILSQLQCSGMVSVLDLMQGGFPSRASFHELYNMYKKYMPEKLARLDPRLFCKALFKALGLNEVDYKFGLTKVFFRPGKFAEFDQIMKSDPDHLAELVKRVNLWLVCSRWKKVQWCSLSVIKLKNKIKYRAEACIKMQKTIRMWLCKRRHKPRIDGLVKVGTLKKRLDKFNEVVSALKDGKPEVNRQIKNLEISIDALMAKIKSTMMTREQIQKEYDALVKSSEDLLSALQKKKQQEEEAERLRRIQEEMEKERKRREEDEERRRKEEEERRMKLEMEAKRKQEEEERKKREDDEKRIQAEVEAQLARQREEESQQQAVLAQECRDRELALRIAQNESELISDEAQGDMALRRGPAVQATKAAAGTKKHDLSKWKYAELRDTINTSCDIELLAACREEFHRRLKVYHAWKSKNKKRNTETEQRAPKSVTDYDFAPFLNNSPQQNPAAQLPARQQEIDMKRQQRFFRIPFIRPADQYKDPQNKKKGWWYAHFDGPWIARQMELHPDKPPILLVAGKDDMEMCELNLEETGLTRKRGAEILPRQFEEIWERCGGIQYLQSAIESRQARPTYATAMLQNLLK

Molecular target: myosin light chain 3 (mouse (endogenous in mouse primary chondrocytes)) (UniProt P09542)
Assay: co-IP; endogenous proteins from mouse primary chondrocyte lysates (40 mM HEPES pH 7.4, 2 mM EDTA, 0.3% CHAPS); primary antibody overnight at 4 °C, Protein A + G Sepharose, three washes, immunoblot; control IgG; cells also treated with H2O2 or transfected with control, Myl3-KD or Myl3-OE

With myosin VI (from UniProt Q64331 1-1262) the binding was “binds”.
